According to PMC8141524:
These are yes or no findings as the source states them, for the method shown. In cells and extracts the contact can be indirect. Some results given as binding are weak or reduced against the parent protein; the word gives no strength. Sequences can lack the tags named with a protein.

How the values were obtained:
Assay in all cases: pull-down; 293T cells cotransfected with GFP-SANBR and Flag-Strep-tagged SANBR WT or deletion mutants; lysate (20 mM Tris pH 7.5, 150 mM NaCl, 5% glycerol, 0.5% NP40) on MagStrep type 3 XT beads, 2 h 4 °C; immunoblot anti-GFP and anti-Flag
[1] = target: T1, Full-length Flag-StrepII-tagged wild-type SANBR (mouse) (UniProt Q68FF0)
T1 sequence: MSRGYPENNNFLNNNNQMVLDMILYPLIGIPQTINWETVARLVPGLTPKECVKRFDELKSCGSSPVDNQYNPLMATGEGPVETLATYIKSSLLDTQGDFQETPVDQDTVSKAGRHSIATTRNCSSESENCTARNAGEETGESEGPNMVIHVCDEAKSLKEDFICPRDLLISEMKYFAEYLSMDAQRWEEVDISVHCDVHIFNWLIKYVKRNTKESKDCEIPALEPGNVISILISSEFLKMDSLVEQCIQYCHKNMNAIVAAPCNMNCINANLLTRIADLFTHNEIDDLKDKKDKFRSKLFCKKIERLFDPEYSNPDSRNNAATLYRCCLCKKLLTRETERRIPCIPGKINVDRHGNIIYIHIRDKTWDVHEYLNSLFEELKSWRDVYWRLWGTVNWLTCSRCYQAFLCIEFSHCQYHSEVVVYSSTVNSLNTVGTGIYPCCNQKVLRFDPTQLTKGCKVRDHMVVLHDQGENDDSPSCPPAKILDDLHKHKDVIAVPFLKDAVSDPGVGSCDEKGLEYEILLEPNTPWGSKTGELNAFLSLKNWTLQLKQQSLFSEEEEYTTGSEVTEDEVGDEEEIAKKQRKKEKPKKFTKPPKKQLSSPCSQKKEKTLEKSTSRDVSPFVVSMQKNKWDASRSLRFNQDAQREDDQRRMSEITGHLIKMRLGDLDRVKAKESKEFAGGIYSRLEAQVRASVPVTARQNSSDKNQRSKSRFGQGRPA

[2] = target: T2, Flag-StrepII-tagged SANBR ΔSANT (lacks amino acids 48-59, helix 3 of the SANT domain) (mouse) (UniProt Q68FF0)
T2 sequence: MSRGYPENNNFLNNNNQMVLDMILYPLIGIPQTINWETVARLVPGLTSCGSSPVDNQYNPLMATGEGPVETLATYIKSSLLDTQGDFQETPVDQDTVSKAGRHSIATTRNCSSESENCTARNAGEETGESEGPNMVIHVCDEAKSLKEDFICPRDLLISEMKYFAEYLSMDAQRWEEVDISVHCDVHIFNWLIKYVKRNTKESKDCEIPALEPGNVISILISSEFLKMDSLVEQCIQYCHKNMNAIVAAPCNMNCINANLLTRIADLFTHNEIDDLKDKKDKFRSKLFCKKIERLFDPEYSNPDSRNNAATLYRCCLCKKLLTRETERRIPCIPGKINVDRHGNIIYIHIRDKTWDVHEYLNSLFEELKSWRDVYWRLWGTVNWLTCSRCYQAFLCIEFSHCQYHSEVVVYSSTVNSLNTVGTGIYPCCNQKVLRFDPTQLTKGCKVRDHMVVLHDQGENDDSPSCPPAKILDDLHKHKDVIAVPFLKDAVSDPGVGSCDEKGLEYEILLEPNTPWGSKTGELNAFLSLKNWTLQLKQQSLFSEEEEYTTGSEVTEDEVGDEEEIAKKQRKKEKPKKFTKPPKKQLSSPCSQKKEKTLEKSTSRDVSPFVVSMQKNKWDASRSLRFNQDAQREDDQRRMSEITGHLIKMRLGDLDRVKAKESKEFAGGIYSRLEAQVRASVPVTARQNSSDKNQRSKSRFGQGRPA

[3] = target: T3, Flag-StrepII-tagged SANBR ΔBTB (lacks amino acids 147-255) (mouse) (UniProt Q68FF0)
T3 sequence: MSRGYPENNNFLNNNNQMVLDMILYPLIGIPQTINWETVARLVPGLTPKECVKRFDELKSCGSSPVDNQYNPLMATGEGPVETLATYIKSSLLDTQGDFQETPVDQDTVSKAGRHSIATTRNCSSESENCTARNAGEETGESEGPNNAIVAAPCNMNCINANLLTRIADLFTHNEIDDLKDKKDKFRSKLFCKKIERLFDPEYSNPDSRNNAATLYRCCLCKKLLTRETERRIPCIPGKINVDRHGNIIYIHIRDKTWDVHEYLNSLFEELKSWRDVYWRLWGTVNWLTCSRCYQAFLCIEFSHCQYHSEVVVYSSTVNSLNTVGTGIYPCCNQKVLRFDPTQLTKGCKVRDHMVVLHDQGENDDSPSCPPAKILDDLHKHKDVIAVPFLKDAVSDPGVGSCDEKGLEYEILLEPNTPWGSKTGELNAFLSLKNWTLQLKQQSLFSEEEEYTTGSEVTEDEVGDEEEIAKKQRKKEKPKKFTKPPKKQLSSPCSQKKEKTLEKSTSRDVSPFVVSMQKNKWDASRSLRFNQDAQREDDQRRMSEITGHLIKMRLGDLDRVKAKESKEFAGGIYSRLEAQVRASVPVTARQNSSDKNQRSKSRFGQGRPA

Measured: binding

B1: N-terminal GFP-tagged WT SANBR (protein, UniProt Q68FF0-1 1-718)
chain: MSRGYPENNNFLNNNNQMVLDMILYPLIGIPQTINWETVARLVPGLTPKECVKRFDELKSCGSSPVDNQYNPLMATGEGPVETLATYIKSSLLDTQGDFQETPVDQDTVSKAGRHSIATTRNCSSESENCTARNAGEETGESEGPNMVIHVCDEAKSLKEDFICPRDLLISEMKYFAEYLSMDAQRWEEVDISVHCDVHIFNWLIKYVKRNTKESKDCEIPALEPGNVISILISSEFLKMDSLVEQCIQYCHKNMNAIVAAPCNMNCINANLLTRIADLFTHNEIDDLKDKKDKFRSKLFCKKIERLFDPEYSNPDSRNNAATLYRCCLCKKLLTRETERRIPCIPGKINVDRHGNIIYIHIRDKTWDVHEYLNSLFEELKSWRDVYWRLWGTVNWLTCSRCYQAFLCIEFSHCQYHSEVVVYSSTVNSLNTVGTGIYPCCNQKVLRFDPTQLTKGCKVRDHMVVLHDQGENDDSPSCPPAKILDDLHKHKDVIAVPFLKDAVSDPGVGSCDEKGLEYEILLEPNTPWGSKTGELNAFLSLKNWTLQLKQQSLFSEEEEYTTGSEVTEDEVGDEEEIAKKQRKKEKPKKFTKPPKKQLSSPCSQKKEKTLEKSTSRDVSPFVVSMQKNKWDASRSLRFNQDAQREDDQRRMSEITGHLIKMRLGDLDRVKAKESKEFAGGIYSRLEAQVRASVPVTARQNSSDKNQRSKSRFGQGRPA
binds: all assays above
